Test system: cortical neurons
Assay: Neurite outgrowth in embryonic rat cortical neuron cultures
Format: cell-based
Settings: 250 nM positive control, 3 days, vs vehicle
Text: Female Wistar rats of 17 days gestation were killed by cervical dislocation and the fetuses (typically 6 to 8 in number) were removed from the uteri. Fetal brains were placed in ice-cold medium of Leibovitz (L15, Gibco, France). Cortex was dissected and meninges were carefully removed. The cortical neurons were dissociated by trypsinization (trypsin-EDTA, Gibco) in the presence of DNAse I (Roche, France). The reaction was stopped by addition of Dulbecco's Modified Eagle Medium (DMEM; Gibco) with 10% of fetal bovine serum (FBS; Gibco). The suspension was triturated with a 10-ml pipette and a 21-gauge needle syringe and centrifuged. The pellet of dissociated cells was resuspended in a medium consisting of Neurobasal (Gibco) supplemented with 2% B27 supplement (Gibco), 0.5 mM L-Glutamine (Gibco), and an antibiotic-antimycotic mixture. Viable cells were counted in a Neubauer cytometer and cells were seeded in 96-well plates (Costar) precoated with poly-L-lysine at 10,000 cells/well. […] Stock solutions were prepared in sterile water at 10 mM and stored at −20° C. until used. Further dilutions were prepared in culture in the medium on the day of the treatment. 0.1% Sterile water was present in all tested conditions.
The experimental protocol was performed in two independent cultures (i.e., from two different pregnant rats). For each culture, each condition was tested in sextuplet (6 wells per condition per culture for a total of 12 wells per condition). […] After rinsing the cells with PBS, the plate was imaged and neurite networks were examined and analyzed using a High-Content Screening platform (CellInsight CXS, Thermo Scientific) with integrated Photometrics high-resolution fluorescent camera, Olympus objective (10×) and HCS Studio Cell Analysis Software. Approximately 2,000 neurons per well were analyzed using a validated cortex neuron outgrowth algorithm that utilizes parameters optimized for analysis of embryonic rat cortical neuron cultures. […] Results were expressed as mean (±s.e.m.) of the transformed (% of vehicle control) data. […]

COc1cc2c(cc1OC)C(=O)C(CC1CCN(Cc3ccccc3)CC1)C2 (stereo not drawn) [Donepezil]
significantly increasing: neurite number (#) | neurite total length (μm) | total number of branch points (#)
